This continues a long series; more values of the same kind are listed elsewhere.
Tested on: library of 8,380 IKZF3 degrons (ZF-eGFP/mCherry reporter) in Jurkat cells
Assay: Pooled library screen (FACS, NGS, limma voom LogFC of positive vs negative read counts)
Type: cell-based, human
Procedure: A library of 8,380 IKZF3 degrons was cloned into pLVX-Sprout to create the eGFP/mCherry protein degradation reporter plasmid pool. A lentivirus pool was then generated using the Lenti-X lentiviral vector production method.
Jurkat cells were transduced at a multiplicity of infection of <0.3 with the lentivirus vector library in order to maximise the number of cells with a single integration. Transductions were carried out in 6 well TC-treated cell culture dishes (Falcon) with 3×10^6 cells per well. Cells were incubated for 2 days at 37° C. and 5% CO2 before the supernatant was removed and replaced with fresh media. 6 days post-transduction, mCherry+ cells were isolated via FACS using the FACS Aria Fusion (BD) in a buffer containing PBS (Gibco), 2 mM EDTA (Gibco), 25 mM HEPES (Sigma) and 1% BSA (Sigma). 8 days later, cells were treated with DMSO or a thalidomide analog for 18 hours at 37° C. and 5% CO2. mCherry+GFPlow and NOT(mCherry+GFPlow) cells were sorted by FACS using the FACS Aria Fusion (BD). DMSO treated cells were used to set the mCherry+GFPlow gate and dead cells were excluded from sorting by staining cells with 1 μg/mL DAPI (ThermoFisher). gDNA was isolated using the Maxwell RSC 48 (Promega). gDNA from cells that were unsorted and untreated were also isolated to determine the library representation on the day of compound treatment. Throughout the screen >600× coverage of the library was maintained. 3 biological replicates were carried out with a new transduction taking place each time.
A two-step PCR was used where the first PCR (PCR1) amplified the integrated degron sequence from gDNA and the second PCR (PCR2) added Illumina adaptors and barcodes to permit multiplexing. See Supp F for PCR1 and PCR2 primers. Q5 Hot Start High-Fidelity 2× Master Mix (New England Biolabs) was used for both PCRs. Sufficient gDNA was amplified in PCR1 in order to maintain >600× coverage and amplicons were purified using solid phase reversible immobilization (SPRI) beads (Beckman Coulter). Purified PCR1 products were analysed on the Tapestation 4200 (Agilent) to confirm purity prior to proceeding to PCR2. Sufficient PCR1 product was amplified in PCR2 in order to maintain >600× coverage and amplicons were run on a 2% agarose TAE gel. Target bands were excised and purified using the NucleoSpin Gel and PCR Clean-up Kit (Machery Nagel). Amplicons were analysed on the Tapestation 4200 and quantified using Qubit dsDNA HS kit (ThermoFisher). PCR products were pooled and sequenced as paired-reads on the NovaSeq (Illumina) using a SP2 200 cycles kit (Illumina).
Count distributions, percentage of read mapping, library coverage and replicate correlation per sample were assessed for QC purposes.
To carry out the library screen, we used the same plasmid construct as in our earlier flow cytometry assays, but pooling all 8,380 mutants together into one Jurkat population, ensuring a copy number of one plasmid per cell (FIG. 4B). […] These GFP-negative cells were then separated from the remaining GFP-positive population using fluorescence activated cell sorting (FACS). These two populations were then sequenced and the relative abundance of every mutant in both populations compared to provide a log FC value for each mutant sequence. This value indicated how frequently a sequence is observed in the GFP-negative population relative to the GFP-positive population, and therefore how effective a degron it is for that particular IMID compound.

**Q.** With O=C1CCC(N2C(=O)c3ccc(N4CCOCC4)cc3C2=O)C(=O)N1 (stereo not shown) [B03] as the compound, how does the B03_logFC (degron 4095 (SEQ ID NO 3504) 46F_47W_49D_50I_52G_53A_54S_55F_67L) read?
**A.** 3.692

**Q.** What about the B03_logFC (degron 4120 (SEQ ID NO 3641) 46F_47W_49D_50V_52G_53A_54A_55F_67L) of the same compound?
**A.** 3.373

**Q.** What about the B03_logFC (degron 4121 (SEQ ID NO 3603) 46F_47W_49D_50V_52G_53A_54C_55F_67L) of the same compound?
**A.** 3.471

**Q.** What about the B03_logFC (degron 4131 (SEQ ID NO 3460) 46F_47W_49D_50V_52G_53A_54N_55F_67L) of the same compound?
**A.** 3.89

**Q.** And the B03_logFC (degron 4133 (SEQ ID NO 3466) 46F_47W_49D_50V_52G_53A_54Q_55F_67L)?
**A.** 3.851

**Q.** And the B03_logFC (degron 4134 (SEQ ID NO 3545) 46F_47W_49D_50V_52G_53A_54R_55F_67L)?
**A.** 3.597

**Q.** What about the B03_logFC (degron 4135 (SEQ ID NO 3600) 46F_47W_49D_50V_52G_53A_54S_55F_67L) of the same compound?
**A.** 3.482

**Q.** And the B03_logFC (degron 4140 (SEQ ID NO 3470) 46F_47W_49E_50I_52G_53A_54A_55F_67L)?
**A.** 3.831

**Q.** And the B03_logFC (degron 4141 (SEQ ID NO 3477) 46F_47W_49E_50I_52G_53A_54C_55F_67L)?
**A.** 3.795

**Q.** What about the B03_logFC (degron 4146 (SEQ ID NO 3482) 46F_47W_49E_50I_52G_53A_54H_55F_67L) of the same compound?
**A.** 3.784

**Q.** And the B03_logFC (degron 4147 (SEQ ID NO 3561) 46F_47W_49E_50I_52G_53A_54I_55F_67L)?
**A.** 3.548

**Q.** And the B03_logFC (degron 4148 (SEQ ID NO 3487) 46F_47W_49E_50I_52G_53A_54K_55F_67L)?
**A.** 3.754

**Q.** And the B03_logFC (degron 4150 (SEQ ID NO 3530) 46F_47W_49E_50I_52G_53A_54M_55F_67L)?
**A.** 3.628

**Q.** What about the B03_logFC (degron 4151 (SEQ ID NO 3483) 46F_47W_49E_50I_52G_53A_54N_55F_67L) of the same compound?
**A.** 3.782

**Q.** What about the B03_logFC (degron 4152 (SEQ ID NO 3629) 46F_47W_49E_50I_52G_53A_54P_55F_67L) of the same compound?
**A.** 3.417

**Q.** What about the B03_logFC (degron 4153 (SEQ ID NO 3455) 46F_47W_49E_50I_52G_53A_54Q_55F_67L) of the same compound?
**A.** 3.93

**Q.** And the B03_logFC (degron 4154 (SEQ ID NO 3582) 46F_47W_49E_50I_52G_53A_54R_55F_67L)?
**A.** 3.508

**Q.** What about the B03_logFC (degron 4155 (SEQ ID NO 3473) 46F_47W_49E_50I_52G_53A_54S_55F_67L) of the same compound?
**A.** 3.809

**Q.** What about the B03_logFC (degron 4156 (SEQ ID NO 3491) 46F_47W_49E_50I_52G_53A_54T_55F_67L) of the same compound?
**A.** 3.731

**Q.** And the B03_logFC (degron 4157 (SEQ ID NO 3584) 46F_47W_49E_50I_52G_53A_54V_55F_67L)?
**A.** 3.507

**Q.** What about the B03_logFC (degron 4180 (SEQ ID NO 3458) 46F_47W_49E_50V_52G_53A_54A_55F_67L) of the same compound?
**A.** 3.904

**Q.** And the B03_logFC (degron 4181 (SEQ ID NO 3484) 46F_47W_49E_50V_52G_53A_54C_55F_67L)?
**A.** 3.768

**Q.** What about the B03_logFC (degron 4186 (SEQ ID NO 3457) 46F_47W_49E_50V_52G_53A_54H_55F_67L) of the same compound?
**A.** 3.919

**Q.** What about the B03_logFC (degron 4188 (SEQ ID NO 3463) 46F_47W_49E_50V_52G_53A_54K_55F_67L) of the same compound?
**A.** 3.857

**Q.** And the B03_logFC (degron 4190 (SEQ ID NO 3608) 46F_47W_49E_50V_52G_53A_54M_55F_67L)?
**A.** 3.458

**Q.** And the B03_logFC (degron 4191 (SEQ ID NO 3464) 46F_47W_49E_50V_52G_53A_54N_55F_67L)?
**A.** 3.856

**Q.** What about the B03_logFC (degron 4193 (SEQ ID NO 3478) 46F_47W_49E_50V_52G_53A_54Q_55F_67L) of the same compound?
**A.** 3.793

**Q.** What about the B03_logFC (degron 4194 (SEQ ID NO 3472) 46F_47W_49E_50V_52G_53A_54R_55F_67L) of the same compound?
**A.** 3.817

**Q.** And the B03_logFC (degron 4195 (SEQ ID NO 3564) 46F_47W_49E_50V_52G_53A_54S_55F_67L)?
**A.** 3.545

**Q.** What about the B03_logFC (degron 4196 (SEQ ID NO 3488) 46F_47W_49E_50V_52G_53A_54T_55F_67L) of the same compound?
**A.** 3.753

**Q.** What about the B03_logFC (degron 4197 (SEQ ID NO 3624) 46F_47W_49E_50V_52G_53A_54V_55F_67L) of the same compound?
**A.** 3.426

**Q.** What about the B03_logFC (degron 4211 (SEQ ID NO 3533) 46F_47W_49N_50I_52G_53A_54N_55F_67L) of the same compound?
**A.** 3.619

**Q.** What about the B03_logFC (degron 4213 (SEQ ID NO 3546) 46F_47W_49N_50I_52G_53A_54Q_55F_67L) of the same compound?
**A.** 3.593

**Q.** And the B03_logFC (degron 4215 (SEQ ID NO 3565) 46F_47W_49N_50I_52G_53A_54S_55F_67L)?
**A.** 3.543

**Q.** What about the B03_logFC (degron 4251 (SEQ ID NO 3574) 46F_47W_49N_50V_52G_53A_54N_55F_67L) of the same compound?
**A.** 3.527

**Q.** And the B03_logFC (degron 4266 (SEQ ID NO 3577) 46F_47W_49P_50I_52G_53A_54H_55F_67L)?
**A.** 3.514

**Q.** And the B03_logFC (degron 4268 (SEQ ID NO 3621) 46F_47W_49P_50I_52G_53A_54K_55F_67L)?
**A.** 3.431

**Q.** And the B03_logFC (degron 4271 (SEQ ID NO 3524) 46F_47W_49P_50I_52G_53A_54N_55F_67L)?
**A.** 3.643

**Q.** And the B03_logFC (degron 4273 (SEQ ID NO 3505) 46F_47W_49P_50I_52G_53A_54Q_55F_67L)?
**A.** 3.689

**Q.** What about the B03_logFC (degron 4274 (SEQ ID NO 3514) 46F_47W_49P_50I_52G_53A_54R_55F_67L) of the same compound?
**A.** 3.663

**Q.** What about the B03_logFC (degron 4275 (SEQ ID NO 3526) 46F_47W_49P_50I_52G_53A_54S_55F_67L) of the same compound?
**A.** 3.637

**Q.** And the B03_logFC (degron 4276 (SEQ ID NO 3552) 46F_47W_49P_50I_52G_53A_54T_55F_67L)?
**A.** 3.566

**Q.** And the B03_logFC (degron 4293 (SEQ ID NO 3569) 46F_47W_49P_50Q_52G_53A_54Q_55F_67L)?
**A.** 3.537
